Measurements from PubChem BioAssay AID2685 (National Center for Advancing Translational Sciences (NCATS), 2010).
This is one part of the list. Shown are side measurements of this screen, not its main read-out; they come without a call. The list favours compounds with an active or inconclusive main result. Words in brackets tell the shape of the fitted curve; partial curves, single points and poor fits give uncertain potencies.

Assay: qHTS Assay for Lipid Storage Modulators in Drosophila S3 Cells;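 for cell number change: cells counted by Cell Tracker Red CMTPX staining in the red channel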
Settings: BODIPY lipid droplet fluorescence, 18-24 h; for cell number change: measured here: cell count max response, cells fed with added oleic acid
Method in brief: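 Drosophila S3 cells got compounds at several concentrations plus oleic acid (400 uM solution). Laser-scanning cytometry with 488 nm excitation read lipid droplets at 500-530 nm and cells at 575-640 nm. Percent activity was relative to 20 uM Triacsin C.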

[1] = measured here: lipid fluorescence (Fed channel) AC50, cells fed with added oleic acid
[2] = measured here: cell number channel AC50, cells fed with added oleic acid

SMILES | cell number change [%] | AC50 [1] | AC50 [2]
Oc1ccc2ccccc2c1C=Nc1cc(C(F)(F)F)ccc1N1CCCC1 | -1.27 | 29.1 µM [falling, single point] | –
O=C(Cc1cccc2ccccc12)NC(NC(=S)Nc1ccccc1Cl)C(Cl)(Cl)Cl (stereo not drawn) | -35.4 | – | 7.31 µM [falling, partial curve, poor fit]
CCN(CC)CCCOc1ccc(C)cc1Br | -31.4 | 3.66 µM [falling, partial curve] | 0.0092 µM [falling, full curve, poor fit]
CCOC(=O)c1c(NC(=O)C(C)N2CCN(C(=O)c3ccco3)CC2)sc2c1CCCC2 (stereo not drawn) | -138 | 29.1 µM [falling, single point] | 18.4 µM [falling, single point]
Cc1ccc(NC(=O)c2onc(C)c2Cl)cc1 | 29.6 | 14.6 µM [rising, single point] | –
CCN(CC(=O)Nc1cc(S(=O)(=O)N2CCCCC2)ccc1C)Cc1ccccc1 | 53.5 | – | 16.4 µM [rising, single point]
COc1ccc(CNC(=O)c2cc(C(=O)C3CC3)c[nH]2)cc1 | 3.29 | 0.146 µM [rising, single point] | –
CCC(C)n1cnc2c(=O)oc3ccccc3c21 (stereo not drawn) | 10.9 | 20.6 µM [rising, partial curve, poor fit] | –
CC1(C)C2CCC1(CS(=O)(=O)N1CCCc3ccccc31)C(=O)C2 (stereo not drawn) | -7.71 | – | 0.164 µM [falling, full curve, poor fit]
O=C(CN1CCOCC1)Nc1ccc(C2CCCCC2)cc1 | -30.8 | – | 29.1 µM [falling, single point]
CC1CCc2c(sc(NC(=O)c3ccc(-c4ccccc4[N+](=O)[O-])o3)c2C#N)C1 (stereo not drawn) | 22.2 | – | –
CN(C)C(=O)NC1c2ccccc2-c2ccccc21 | 20.6 | 6.51 µM [rising, full curve] | –
CCOc1ccc(Nc2nc(Cc3nnc(SCC(=O)c4ccc(C)c(C)c4)o3)cs2)cc1 | -23.9 | 2.91 µM [rising, single point] | –
CCc1ccc(N2CC(C(=O)N3CCN(c4ccccn4)CC3)CC2=O)cc1 (stereo not drawn) | 3.95 | – | –
COc1ccc(CNC(=O)CN(c2ccc(OC)cc2)S(=O)(=O)c2c(C)[nH]c(=O)[nH]c2=O)cc1 | 23.6 | 3.26 µM [falling, full curve, poor fit] | 0.58 µM [rising, full curve, poor fit]
O=c1[nH]cc(C(F)(F)F)cc1NS(=O)(=O)c1ccc([N+](=O)[O-])cc1 | 72.6 | – | 29.1 µM [rising, single point]
COc1ccccc1N1CCN(C(=O)c2cc3c(C)nc4ccccc4c3o2)CC1 | -35.9 | 2.59 µM [falling, partial curve] | 8.2 µM [falling, partial curve, poor fit]
Cc1ccc(-n2c(-c3ccco3)nc3c(cnn3-c3ccc(C)cc3)c2=O)cc1 | -15.3 | 0.00461 µM [falling, full curve, poor fit] | –
CC1(C)CC(NC(=O)C23CCC(C)(C(=O)C2)C3(C)C)CC(C)(C)N1 (stereo not drawn) | -8.26 | 0.103 µM [falling, full curve] | –
O=C(/C=C/c1cccnc1)c1cccc(O)c1 | 40.8 | 35.5 µM [rising, single point] | 29.1 µM [rising, single point]
CC(OC(=O)c1ccc2c(=O)n3c(nc2c1)CCCCC3)C(=O)Nc1ncc(Cl)cc1Cl (stereo not drawn) | -14.8 | – | –

SMILES | cell number change [%] | AC50 [1] | AC50 [2]
C=CCN1C(=Nc2ccccc2)SC/C1=C\C(=O)OC | -1.69 | 20.6 µM [rising, single point] | –
FC(F)(F)c1nnc2c(Sc3ccccn3)nc3ccccc3n12 | 18 | – | –
O=C(c1sc2ccccc2c1Cl)N1CCN(c2ccccn2)CC1 | 30.3 | 0.501 µM [rising, single point] | –
CCS(=O)(=O)c1cc([N+](=O)[O-])c(Sc2ccccc2NC(C)=O)s1 | -30.6 | 29.1 µM [falling, single point] | 29.1 µM [falling, single point]
COc1cccc(C(=O)/C=C2\Sc3ccccc3N2C)c1 | 28.2 | 1.46 µM [rising, full curve] | 1.16 µM [rising, full curve]
Cc1cc(C)nc(N/N=C/C(Cl)=C/c2ccccc2)n1 | 98.6 | 2.06 µM [rising, partial curve] | 9.2 µM [rising, partial curve]
O=C(N/N=C/c1ccco1)c1ccccc1OCc1ccc(Br)cc1 | – | 2.31 µM [rising, single point] | –
Cc1c(C(=S)Nc2ccccc2)cnn1-c1ccc([N+](=O)[O-])cc1 | -10.5 | 0.411 µM [rising, single point] | –
COc1ccccc1NS(=O)(=O)c1cccc(C(=O)N/N=C/c2c(CO)cnc(C)c2O)c1 | 5.83 | 0.58 µM [rising, full curve, poor fit] | –
CCNS(=O)(=O)c1ccc(OC)c(C(=O)NC2CCCCC2)c1 | -27.9 | – | –
COc1ccc(NS(=O)(=O)c2ccc(NC(C)=O)cc2)cc1OC | – | 29.1 µM [falling, single point] | –
CCC(O)CC(C(=O)NNc1ccccc1)C(=O)NNc1ccccc1 (stereo not drawn) | 21.8 | – | –
COc1cc(/C=N/NC(=O)CCN2CCN(C)CC2)cc2c1OCO2 | 6.49 | 6.51 µM [falling, single point] | –
CC(=O)Oc1c(/C=C(\C#N)C(N)=O)[nH]c2ccccc12 | -65.3 | 20.6 µM [falling, single point] | 18.4 µM [falling, single point]
CCC(=O)N/N=C/c1ccc(-c2ccc(Cl)cc2)o1 | 6.03 | 0.13 µM [falling, full curve, poor fit] | –
O=C(CN(CC1CCCO1)C(=O)CNS(=O)(=O)c1ccc(Cl)cc1)NC1CCCCC1 (stereo not drawn) | – | 4.11 µM [rising, single point] | –
O=S(=O)(Nc1nc2c(s1)CCCC2)c1ccc(F)cc1 | 26.2 | 29.1 µM [rising, single point] | –
COc1ccc(CNC(=O)C(C)N(Cc2ccco2)C(=O)c2snc(C(N)=O)c2N)cc1 (stereo not drawn) | 35 | 0.517 µM [rising, partial curve] | 2.59 µM [rising, full curve]
CCCCN(N=Nc1nonc1OC)c1nonc1OC | 32.6 | 7.31 µM [rising, partial curve] | –
O=C(/C=C/c1cn(CC(O)CN2CCCCC2)c2ccccc12)c1cccs1 (stereo not drawn) | -9.03 | – | –
COc1ccc(C(O)(CCN2CCOCC2)c2ccccc2)cc1 (stereo not drawn) | 0.185 | 7.31 µM [rising, partial curve] | –

Looked up by structure from above:
SMILES | cell number change [%] | AC50 [1] | AC50 [2]
O=S(=O)(Nc1nc2c(s1)CCCC2)c1ccc(F)cc1 | 26.2 | 29.1 µM [rising, single point] | –
COc1ccc(NS(=O)(=O)c2ccc(NC(C)=O)cc2)cc1OC | – | 29.1 µM [falling, single point] | –
COc1cc(/C=N/NC(=O)CCN2CCN(C)CC2)cc2c1OCO2 | 6.49 | 6.51 µM [falling, single point] | –

Continued:

SMILES | cell number change [%] | AC50 [1] | AC50 [2]
O=C(NCc1ccco1)C(=O)N1CCCC1 | -13.3 | 25.9 µM [falling, single point] | –
CC12CCC(=O)N1C(C(=O)NCCN1C(=O)S/C(=C\c3ccccc3F)C1=O)CS2 (stereo not drawn) | -3.49 | 23.1 µM [falling, single point] | –
O=C(COc1nncc2ccccc12)NCC(F)(F)F | – | – | 0.0058 µM [falling, full curve, poor fit]
Cc1nc(NCCc2ccccc2)sc1C(=O)O | -19 | – | –
CCOc1cc(-c2nn3cnnc3s2)cc(OCC)c1OCC | – | 0.00461 µM [falling, full curve, poor fit] | 6.51 µM [rising, single point]
COc1cccc(C2=CC(c3cccc(OC)c3OC)n3nnnc3N2)c1 (stereo not drawn) | – | 0.58 µM [rising, full curve, poor fit] | –
O=C(c1ccccc1Br)N1CCN(c2ccc([N+](=O)[O-])c(N3CCOCC3)c2)CC1 | -14.3 | – | 1.3 µM [rising, full curve]
CN(C)c1ccc(N2C(=O)CSC2=S)cc1 | -9.99 | 0.146 µM [falling, full curve] | –
Cc1cc(-c2ccccc2)n(-c2ccccc2)n1 | 6.35 | 0.58 µM [rising, single point] | –
COc1cc(CNCc2ccc(OC)c(OC)c2OC)cc(OC)c1 | 13.8 | – | –
CNC(=O)c1ccsc1NC(=O)C1CCN(S(=O)(=O)c2ccc(Cl)s2)CC1 | 65.1 | – | 13 µM [rising, partial curve, poor fit]
Cc1ccc(OCCn2c(=S)[nH]c3ccccc32)c(C(C)C)c1 | -53 | – | 8.2 µM [falling, partial curve]
CC(=O)Nc1cccc(OC(=O)COc2ccc(Br)cc2)c1 | 54.9 | 29.1 µM [rising, single point] | 0.92 µM [rising, full curve]
O=C(c1cncc(Br)c1)N1CCN(S(=O)(=O)c2ccc(Cl)cc2)CC1 | 23.7 | – | –
Cc1c(N=C2N=C(NC(=O)c3ccc(F)cc3)c3ccccc32)c(=O)n(-c2ccccc2)n1C | 2.15 | – | –
Fc1ccc(-c2csc3ncnc(N4CCN(Cc5ccccc5)CC4)c23)cc1 | 25.2 | 29.1 µM [rising, single point] | 2.06 µM [rising, full curve, poor fit]
O=C(NC1CCSc2ccccc21)c1cc([N+](=O)[O-])ccc1N1CCOCC1 (stereo not drawn) | – | – | 6.51 µM [rising, single point]
Cc1ccccc1N1CCN(C2CCCN(C(=O)CCN3CCCCC3=O)C2)CC1 (stereo not drawn) | 5.81 | 29.1 µM [rising, single point] | –
Cc1cc(C)c(NC(=S)NCC2CCN(C(C)c3ccccc3)C2)c(C)c1 (stereo not drawn) | -58.1 | 29.1 µM [falling, single point] | 16.4 µM [falling, partial curve, poor fit]
